Results are given in words; binding and its absence hold for the method and conditions named. Some binding calls cover weakened binding; strength is not graded here.
What was measured:
Test in all cases: peptide or protein array; HuProt human proteome microarray; 5 ug/5 ml biotin-labelled LUBAC or OTULIN in solution, 1 h at room temperature; Cy5-streptavidin, scanned at 635 nm; BSA as negative control; hits: Z-score >= 3 and I_(Mean_Ratio) >= 1.4; both purified
[1] = target: FAM103A1 (human) (UniProt Q9BTL3)
[2] = target: T1, FAM49B (human) (UniProt Q9NUQ9)
T1 sequence: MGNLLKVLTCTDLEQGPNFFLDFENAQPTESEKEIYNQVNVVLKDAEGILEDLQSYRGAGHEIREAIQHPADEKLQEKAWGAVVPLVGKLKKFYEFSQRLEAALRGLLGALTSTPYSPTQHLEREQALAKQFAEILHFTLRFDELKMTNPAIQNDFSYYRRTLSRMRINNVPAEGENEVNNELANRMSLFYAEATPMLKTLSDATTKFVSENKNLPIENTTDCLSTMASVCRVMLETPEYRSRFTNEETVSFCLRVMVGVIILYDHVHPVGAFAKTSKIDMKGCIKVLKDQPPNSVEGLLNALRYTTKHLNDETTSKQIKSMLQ

Amino acid sequences for entries named in this document (tags omitted).
UniProt Q9BTL3: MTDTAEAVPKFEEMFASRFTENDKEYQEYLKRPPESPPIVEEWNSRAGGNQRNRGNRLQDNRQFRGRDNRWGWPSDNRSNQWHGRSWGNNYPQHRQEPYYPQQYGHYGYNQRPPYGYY

[3] = target: T2, PSRC1 (human) (UniProt Q6PGN9)
T2 sequence: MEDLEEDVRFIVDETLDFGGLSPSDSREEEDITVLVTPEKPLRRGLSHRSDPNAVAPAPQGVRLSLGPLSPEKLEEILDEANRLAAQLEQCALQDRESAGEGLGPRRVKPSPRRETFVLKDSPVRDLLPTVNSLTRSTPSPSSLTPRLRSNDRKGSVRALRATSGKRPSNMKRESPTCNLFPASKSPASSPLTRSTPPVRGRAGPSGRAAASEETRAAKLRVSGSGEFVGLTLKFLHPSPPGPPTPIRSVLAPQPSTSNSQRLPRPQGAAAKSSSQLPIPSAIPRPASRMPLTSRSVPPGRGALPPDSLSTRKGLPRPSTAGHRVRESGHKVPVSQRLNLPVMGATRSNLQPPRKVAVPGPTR

[4] = target: T3, SPRR4 (human) (UniProt Q96PI1)
T3 sequence: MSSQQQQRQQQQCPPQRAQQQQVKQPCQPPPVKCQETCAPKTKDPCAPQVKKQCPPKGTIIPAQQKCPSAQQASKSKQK

[5] = target: T4, SRA1 (human) (UniProt Q9HD15)
T4 sequence: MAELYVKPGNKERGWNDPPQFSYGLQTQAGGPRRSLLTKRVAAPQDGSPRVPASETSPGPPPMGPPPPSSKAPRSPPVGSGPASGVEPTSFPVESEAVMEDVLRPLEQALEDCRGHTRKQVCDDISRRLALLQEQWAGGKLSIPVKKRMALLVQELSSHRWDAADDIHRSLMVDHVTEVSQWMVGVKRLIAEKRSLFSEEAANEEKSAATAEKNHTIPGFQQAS

[6] = target: T5, TK1 (human) (UniProt P04183)
T5 sequence: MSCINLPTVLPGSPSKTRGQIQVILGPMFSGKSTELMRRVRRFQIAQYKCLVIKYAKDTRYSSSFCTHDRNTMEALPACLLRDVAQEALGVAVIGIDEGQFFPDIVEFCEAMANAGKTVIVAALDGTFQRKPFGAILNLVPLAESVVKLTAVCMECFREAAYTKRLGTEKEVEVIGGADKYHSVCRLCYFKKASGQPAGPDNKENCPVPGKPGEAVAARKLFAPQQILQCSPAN

[7] = target: T6, WBP2NL (human) (UniProt Q6ICG8)
T6 sequence: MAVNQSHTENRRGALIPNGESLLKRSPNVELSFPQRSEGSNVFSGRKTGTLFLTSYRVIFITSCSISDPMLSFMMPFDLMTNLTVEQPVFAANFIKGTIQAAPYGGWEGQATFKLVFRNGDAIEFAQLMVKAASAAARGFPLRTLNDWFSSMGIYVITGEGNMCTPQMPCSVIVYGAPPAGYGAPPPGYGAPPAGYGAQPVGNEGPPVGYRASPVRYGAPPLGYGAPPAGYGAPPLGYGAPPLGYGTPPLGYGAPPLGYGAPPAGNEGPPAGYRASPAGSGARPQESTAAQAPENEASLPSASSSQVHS

Measured: binding

linear ubiquitin chain assembly complex (LUBAC), purified as HIS-tagged HOIP with the subunit HOIL-1, biotin-labelled (from UniProt Q96EP0 1-1072; Q9BYM8 1-510)
binds: all assays above

From PMC8274477
